Test results reported in paper PMC7670567.

The chains behind the UniProt entries cited, without tags or fusion partners.
UniProt O14949: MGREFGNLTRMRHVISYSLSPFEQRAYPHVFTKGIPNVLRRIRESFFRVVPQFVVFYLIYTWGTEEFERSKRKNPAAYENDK
UniProt O14965: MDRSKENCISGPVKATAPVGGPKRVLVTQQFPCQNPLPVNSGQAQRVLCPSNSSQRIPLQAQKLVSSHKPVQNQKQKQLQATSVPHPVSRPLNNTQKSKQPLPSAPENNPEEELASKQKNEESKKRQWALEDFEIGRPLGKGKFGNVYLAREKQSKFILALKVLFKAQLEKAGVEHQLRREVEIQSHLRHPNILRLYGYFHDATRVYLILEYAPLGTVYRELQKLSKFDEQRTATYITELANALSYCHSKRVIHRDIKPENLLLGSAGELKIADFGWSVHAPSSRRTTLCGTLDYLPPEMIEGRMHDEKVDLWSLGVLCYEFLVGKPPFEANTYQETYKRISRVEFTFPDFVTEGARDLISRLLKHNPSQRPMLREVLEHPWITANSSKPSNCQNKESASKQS
UniProt Q9UH03: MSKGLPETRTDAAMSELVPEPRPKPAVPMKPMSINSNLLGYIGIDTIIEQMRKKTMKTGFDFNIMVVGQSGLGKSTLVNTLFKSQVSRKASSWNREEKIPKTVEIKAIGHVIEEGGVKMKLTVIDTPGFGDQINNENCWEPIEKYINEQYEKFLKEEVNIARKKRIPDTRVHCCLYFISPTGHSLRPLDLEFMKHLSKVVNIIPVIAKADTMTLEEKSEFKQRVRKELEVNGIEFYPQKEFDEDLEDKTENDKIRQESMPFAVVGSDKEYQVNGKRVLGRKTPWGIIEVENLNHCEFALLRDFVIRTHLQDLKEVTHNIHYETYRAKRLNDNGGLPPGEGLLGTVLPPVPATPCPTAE

How the values were obtained:
[1] = target: HCLS1-associated protein X-1 (HAX1), endogenous (human (endogenous in HeLa and MCF7)) (UniProt O00165); test: affinity purification with mass spectrometry; MCF7 lysate (150 mM NaCl, 20 mM Tris/HCl pH 7.4, 0.75% Nonidet-P40); endogenous HAX1 precipitated with anti-HAX1 rabbit polyclonal antibody on Dynabeads protein A, overnight, 4°C; control: IgG; LC-MS/MS
[2] = target: HCLS1-associated protein X-1 (HAX1), endogenous (human (endogenous in HeLa and MCF7)) (UniProt O00165); test: affinity purification with mass spectrometry; HeLa lysate (150 mM NaCl, 20 mM Tris/HCl pH 7.4, 0.75% Nonidet-P40); endogenous HAX1 precipitated with anti-HAX1 rabbit polyclonal antibody on Dynabeads protein A, overnight, 4°C; controls: IgG and HAX1 KO cells; LC-MS/MS
[3] = target: HCLS1-associated protein X-1 (HAX1), endogenous (human (endogenous in HeLa and MCF7)) (UniProt O00165); test: affinity purification with mass spectrometry; MCF7 lysate (150 mM NaCl, 20 mM Tris/HCl pH 7.4, 0.75% Nonidet-P40); endogenous HAX1 precipitated with anti-HAX1 rabbit polyclonal antibody on Dynabeads protein A, overnight, 4°C; control: IgG; LC-MS/MS; remark: listed apart in the source
[4] = target: HCLS1-associated protein X-1 (HAX1), endogenous (human (endogenous in HeLa and MCF7)) (UniProt O00165); test: affinity purification with mass spectrometry; HeLa lysate (150 mM NaCl, 20 mM Tris/HCl pH 7.4, 0.75% Nonidet-P40); endogenous HAX1 precipitated with anti-HAX1 rabbit polyclonal antibody on Dynabeads protein A, overnight, 4°C; controls: IgG and HAX1 KO cells; LC-MS/MS; remark: listed apart in the source

sequestosome (SQSTM1), endogenous (from UniProt Q13501 1-440)
binding [1]: binds

UQCRQ, endogenous (from UniProt O14949 1-82)
binding [2]: binds

Aurora A kinase (AURKA), endogenous (from UniProt O14965 1-403)
binding [1]: binds

SEPT3, endogenous (from UniProt Q9UH03 1-358)
binding [1]: binds

B1: SLC25A13, endogenous (protein, UniProt Q9UJS0 1-675)
chain: MAAAKVALTKRADPAELRTIFLKYASIEKNGEFFMSPNDFVTRYLNIFGESQPNPKTVELLSGVVDQTKDGLISFQEFVAFESVLCAPDALFMVAFQLFDKAGKGEVTFEDVKQVFGQTTIHQHIPFNWDSEFVQLHFGKERKRHLTYAEFTQFLLEIQLEHAKQAFVQRDNARTGRVTAIDFRDIMVTIRPHVLTPFVEECLVAAAGGTTSHQVSFSYFNGFNSLLNNMELIRKIYSTLAGTRKDVEVTKEEFVLAAQKFGQVTPMEVDILFQLADLYEPRGRMTLADIERIAPLEEGTLPFNLAEAQRQKASGDSARPVLLQVAESAYRFGLGSVAGAVGATAVYPIDLVKTRMQNQRSTGSFVGELMYKNSFDCFKKVLRYEGFFGLYRGLLPQLLGVAPEKAIKLTVNDFVRDKFMHKDGSVPLAAEILAGGCAGGSQVIFTNPLEIVKIRLQVAGEITTGPRVSALSVVRDLGFFGIYKGAKACFLRDIPFSAIYFPCYAHVKASFANEDGQVSPGSLLLAGAIAGMPAASLVTPADVIKTRLQVAARAGQTTYSGVIDCFRKILREEGPKALWKGAGARVFRSSPQFGVTLLTYELLQRWFYIDFGGVKPMGSEPVPKSRINLPAPNPDHVGGYKLAVATFAGIENKFGLYLPLFKPSVSTSKAIGGGP
binding [3]: binds
binding [4]: binds

B2: SLC25A10, endogenous (protein, UniProt Q9UBX3 1-287)
chain: MAAEARVSRWYFGGLASCGAACCTHPLDLLKVHLQTQQEVKLRMTGMALRVVRTDGILALYSGLSASLCRQMTYSLTRFAIYETVRDRVAKGSQGPLPFHEKVLLGSVSGLAGGFVGTPADLVNVRMQNDVKLPQGQRRNYAHALDGLYRVAREEGLRRLFSGATMASSRGALVTVGQLSCYDQAKQLVLSTGYLSDNIFTHFVASFIAGGCATFLCQPLDVLKTRLMNSKGEYQGVFHCAVETAKLGPLAFYKGLVPAGIRLIPHTVLTFVFLEQLRKNFGIKVPS
binding [4]: binds

B3: NNT, endogenous (protein, UniProt Q13423 44-1086)
chain: CKAPVKPGIPYKQLTVGVPKEIFQNEKRVALSPAGVQNLVKQGFNVVVESGAGEASKFSDDHYRVAGAQIQGAKEVLASDLVVKVRAPMVNPTLGVHEADLLKTSGTLISFIYPAQNPELLNKLSQRKTTVLAMDQVPRVTIAQGYDALSSMANIAGYKAVVLAANHFGRFFTGQITAAGKVPPAKILIVGGGVAGLASAGAAKSMGAIVRGFDTRAAALEQFKSLGAEPLEVDLKESGEGQGGYAKEMSKEFIEAEMKLFAQQCKEVDILISTALIPGKKAPVLFNKEMIESMKEGSVVVDLAAEAGGNFETTKPGELYIHKGITHIGYTDLPSRMATQASTLYSNNITKLLKAISPDKDNFYFDVKDDFDFGTMGHVIRGTVVMKDGKVIFPAPTPKNIPQGAPVKQKTVAELEAEKAATITPFRKTMSTASAYTAGLTGILGLGIAAPNLAFSQMVTTFGLAGIVGYHTVWGVTPALHSPLMSVTNAISGLTAVGGLALMGGHLYPSTTSQGLAALAAFISSVNIAGGFLVTQRMLDMFKRPTDPPEYNYLYLLPAGTFVGGYLAALYSGYNIEQIMYLGSGLCCVGALAGLSTQGTARLGNALGMIGVAGGLAATLGVLKPGPELLAQMSGAMALGGTIGLTIAKRIQISDLPQLVAAFHSLVGLAAVLTCIAEYIIEYPHFATDAAANLTKIVAYLGTYIGGVTFSGSLIAYGKLQGLLKSAPLLLPGRHLLNAGLLAASVGGIIPFMVDPSFTTGITCLGSVSALSAVMGVTLTAAIGGADMPVVITVLNSYSGWALCAEGFLLNNNLLTIVGALIGSSGAILSYIMCVAMNRSLANVILGGYGTTSTAGGKPMEISGTHTEINLDNAIDMIREANSIIITPGYGLCAAKAQYPIADLVKMLTEQGKKVRFGIHPVAGRMPGQLNVLLAEAGVPYDIVLEMDEINHDFPDTDLVLVIGANDTVNSAAQEDPNSIIAGMPVLEVWKSKQVIVMKRSLGVGYAAVDNPIFYKPNTAMLLGDAKKTCDALQAKVRESYQK
binding [4]: binds

B4: carbamoyl phosphate synthetase (CPS1), endogenous (protein, UniProt P31327 39-1500)
chain: LSVKAQTAHIVLEDGTKMKGYSFGHPSSVAGEVVFNTGLGGYPEAITDPAYKGQILTMANPIIGNGGAPDTTALDELGLSKYLESNGIKVSGLLVLDYSKDYNHWLATKSLGQWLQEEKVPAIYGVDTRMLTKIIRDKGTMLGKIEFEGQPVDFVDPNKQNLIAEVSTKDVKVYGKGNPTKVVAVDCGIKNNVIRLLVKRGAEVHLVPWNHDFTKMEYDGILIAGGPGNPALAEPLIQNVRKILESDRKEPLFGISTGNLITGLAAGAKTYKMSMANRGQNQPVLNITNKQAFITAQNHGYALDNTLPAGWKPLFVNVNDQTNEGIMHESKPFFAVQFHPEVTPGPIDTEYLFDSFFSLIKKGKATTITSVLPKPALVASRVEVSKVLILGSGGLSIGQAGEFDYSGSQAVKAMKEENVKTVLMNPNIASVQTNEVGLKQADTVYFLPITPQFVTEVIKAEQPDGLILGMGGQTALNCGVELFKRGVLKEYGVKVLGTSVESIMATEDRQLFSDKLNEINEKIAPSFAVESIEDALKAADTIGYPVMIRSAYALGGLGSGICPNRETLMDLSTKAFAMTNQILVEKSVTGWKEIEYEVVRDADDNCVTVCNMENVDAMGVHTGDSVVVAPAQTLSNAEFQMLRRTSINVVRHLGIVGECNIQFALHPTSMEYCIIEVNARLSRSSALASKATGYPLAFIAAKIALGIPLPEIKNVVSGKTSACFEPSLDYMVTKIPRWDLDRFHGTSSRIGSSMKSVGEVMAIGRTFEESFQKALRMCHPSIEGFTPRLPMNKEWPSNLDLRKELSEPSSTRIYAIAKAIDDNMSLDEIEKLTYIDKWFLYKMRDILNMEKTLKGLNSESMTEETLKRAKEIGFSDKQISKCLGLTEAQTRELRLKKNIHPWVKQIDTLAAEYPSVTNYLYVTYNGQEHDVNFDDHGMMVLGCGPYHIGSSVEFDWCAVSSIRTLRQLGKKTVVVNCNPETVSTDFDECDKLYFEELSLERILDIYHQEACGGCIISVGGQIPNNLAVPLYKNGVKIMGTSPLQIDRAEDRSIFSAVLDELKVAQAPWKAVNTLNEALEFAKSVDYPCLLRPSYVLSGSAMNVVFSEDEMKKFLEEATRVSQEHPVVLTKFVEGAREVEMDAVGKDGRVISHAISEHVEDAGVHSGDATLMLPTQTISQGAIEKVKDATRKIAKAFAISGPFNVQFLVKGNDVLVIECNLRASRSFPFVSKTLGVDFIDVATKVMIGENVDEKHLPTLDHPIIPADYVAIKAPMFSWPRLRDADPILRCEMASTGEVACFGEGIHTAFLKAMLSTGFKIPQKGILIGIQQSFRPRFLGVAEQLHNEGFKLFATEATSDWLNANNVPATPVAWPSQEGQNPSLSSIRKLIRDGSIDLVINLPNNNTKFVHDNYVIRRTAVDSGIPLLTNFQVTKLFAEAVQKSRKVDSKSLFHYRQYSAGKAA
binding [4]: binds

Results are given in words; binding and its absence hold for the method and conditions named. In cells and extracts the contact can be indirect. These calls come from enrichment with a bait or labelling near it, and not all partners need be listed.
